# Measurements from the supplement of paper PMC9135407.
# Where “and” joins values, the source holds several entries; their conditions need not be identical. Equal entries are not always repeated. Structures can show the parent of a compound that is named as a salt. ± gives the standard deviation of the averaged measurements. The list shows a part of the results. Baselines shift from plate to plate; read single values as rough.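 Assay uses culture-activated primary human stellate myofibroblasts; lipid droplet recovery indicates inactivation. Measured: proportion of Hoechst-counted cells over a plate-specific Bodipy cutoff, duplicate wells, DMSO and nortriptyline as per-plate negative and positive controls. A hit scores, control-normalized, above the plate's top-tenth-percentile nortriptyline wells or ranks among its three best wells. Final well concentrations not reported.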
# Test system: primary human hepatic stellate cells (donor 1)
# Assay: percent Bodipy-positive cells; higher = more lipid droplet accumulation
# Details: 48 h
# [1] = library stock concentration: 3.33 mM
# [2] = library stock concentration: 10 mM
# [3] = library stock concentration: 2 mM
compound,measurement,setting,value
COc1ccc(C2CNC(=O)C2)cc1OC1CCCC1 (stereo not drawn) [S- (+)-Rolipram],percent Bodipy-positive cells,[1],4.83 ± 3%
same,percent Bodipy-positive cells,[2],13.5 ± 1.9%
COc1ccc(C2CNC(=O)C2)cc1OC1CCCC1 (stereo unspecified),percent Bodipy-positive cells,[2],10.3 ± 0.15%
CC[N+]1(C)C2CCC1CC(OC(=O)C1CCC(C(=O)OC3CC4CCC(C3)[N+]4(C)CC)(c3ccccc3)c3ccccc31)C2 (stereo not drawn) [beta- Belladonnine dichloroethylate],percent Bodipy-positive cells,,8.55 ± 2.8%
O=c1c(O)c(-c2ccc(O)cc2O)oc2cc(O)cc(O)c12 [Morin],percent Bodipy-positive cells,[2],26.5% and 20.9%
O=c1c(O)c(-c2ccc(O)cc2O)oc2cc(O)cc(O)c12 [Morin Hydrate],percent Bodipy-positive cells,[1],5.92 ± 0.3%
same,percent Bodipy-positive cells,[2],14 ± 2.2%
Nc1c(S(=O)(=O)O)cc(Nc2cccc3ccccc23)c2c1C(=O)c1ccccc1C2=O,percent Bodipy-positive cells,[2],2.38 ± 1.5%
CCOC(=O)Oc1c(OC)cc(C(=O)O[C@@H]2C[C@@H]3CN4CCc5c([nH]c6cc(OC)ccc56)[C@H]4C[C@@H]3[C@H](C(=O)OC)[C@H]2OC)cc1OC [Syrosingopine],percent Bodipy-positive cells,,60.3 ± 24%
COc1ccc(F)c(F)c1C(=O)c1cnc(NC2CCN(S(C)(=O)=O)CC2)nc1N,percent Bodipy-positive cells,[1],44.2 ± 16%
same,percent Bodipy-positive cells,[2],48.3 ± 2.4%
CCCCC(F)(F)[C@@]1(O)CC[C@H]2[C@@H](CC(=O)[C@@H]2CCCCCCC(=O)O)O1 [Lubiprostone],percent Bodipy-positive cells,[1],9.25 ± 2.7%
same,percent Bodipy-positive cells,[2],15.9 ± 8.2%
Oc1ccc([C@@H]2CNCc3sccc32)cc1O,percent Bodipy-positive cells,[2],21.3 ± 4.1%
O=C1OCCN1/N=C/c1ccc([N+](=O)[O-])o1 [Furazolidone],percent Bodipy-positive cells,,8.18 ± 3.1%
same,percent Bodipy-positive cells,library stock concentration: 8.9 mM,3.079 ± 0.021%
same,percent Bodipy-positive cells,[2],8.35 ± 0.74%
NC(=O)c1ccc([N+](=O)[O-])cc1Cl [Aklomide],percent Bodipy-positive cells,[2],26.8 ± 7.7%
CC(C)[C@H](N)C(=O)OCC(CO)OCn1cnc2c(=O)nc(N)[nH]c21 (stereo partly specified),percent Bodipy-positive cells,[2],45.2 ± 4.2%
CCOC(=O)[C@H](CCc1ccccc1)N[C@H]1CS[C@H](c2cccs2)CN(CC(=O)O)C1=O [Temocapril HCl],percent Bodipy-positive cells,[1],19.2 ± 17%
same,percent Bodipy-positive cells,[2],16.3 ± 1.2%
O=C1NC(=O)/C(=C/c2ccc3nccnc3c2)S1,percent Bodipy-positive cells,library stock concentration: 80 uM,12.9 ± 0.74%
same,percent Bodipy-positive cells,library stock concentration: 400 uM,10.7 ± 0.2%
same,percent Bodipy-positive cells,[3],14 ± 2.3%
same,percent Bodipy-positive cells,[2],6.38 ± 1%
c1ccc([C@H]2CN3CCSC3=N2)cc1 [Levamisole hydrochloride],percent Bodipy-positive cells,,33.3 ± 5.4%
same,percent Bodipy-positive cells,library stock concentration: 8.3 mM,15 ± 1.9%
same,percent Bodipy-positive cells,[2],43.6 ± 4.2%
CCCCC/C=C\C=C\[C@@H](O)CCCCCCCC(=O)O,percent Bodipy-positive cells,library stock concentration: 100 uM,10.9 ± 12%
O=C1C[C@@H](c2ccc(O)cc2)Oc2cc(O)cc(O)c21 [Naringenine],percent Bodipy-positive cells,,54.6 ± 32%
O=C1C[C@@H](c2ccc(O)cc2)Oc2cc(O)cc(O)c21 [Naringenin],percent Bodipy-positive cells,[1],7.96 ± 1%
same,percent Bodipy-positive cells,[2],15.2 ± 1.5%
CCC(=O)O[C@]1(C(=O)CCl)[C@@H](C)C[C@H]2[C@@H]3CCC4=CC(=O)C=C[C@]4(C)[C@@]3(F)[C@@H](O)C[C@@]21C [Clobetasol propionate],percent Bodipy-positive cells,,13.9 ± 1.9%
same,percent Bodipy-positive cells,[1],10.1 ± 6.3%
same,percent Bodipy-positive cells,[2],17.6% and 25.4%
"Cc1ccc(NC(=O)c2ccc(CN3CCN(C)CC3)cc2)cc1Nc1nc(-c2cccnc2)cs1 [Masitinib (AB1010, Masivet) (2 mM)]",percent Bodipy-positive cells,[3],92.5 ± 5.8%
O=S(=O)(O)c1cc(O)ccc1O [Ethamsylate],percent Bodipy-positive cells,,8.17 ± 4.3%
same,percent Bodipy-positive cells,[1],14.2 ± 7.4%
same,percent Bodipy-positive cells,[2],34.3 ± 10%
Cc1c(O)c(=O)ccn1C,percent Bodipy-positive cells,[2],13.6% and 27.7%
CC(C)C[C@H](NP(=O)(O)O[C@H]1O[C@H](C)[C@@H](O)[C@H](O)[C@@H]1O)C(=O)N[C@@H](Cc1c[nH]c2ccccc12)C(=O)O [Phosphoramidon disodium],percent Bodipy-positive cells,[2],16.2 ± 1.4%

# Some of the entries so far, tab-delimited:
compound	measurement	setting	value
COc1ccc(F)c(F)c1C(=O)c1cnc(NC2CCN(S(C)(=O)=O)CC2)nc1N	percent Bodipy-positive cells	[2]	48.3 ± 2.4%
O=C1OCCN1/N=C/c1ccc([N+](=O)[O-])o1 [Furazolidone]	percent Bodipy-positive cells		8.18 ± 3.1%
O=C1C[C@@H](c2ccc(O)cc2)Oc2cc(O)cc(O)c21 [Naringenine]	percent Bodipy-positive cells		54.6 ± 32%
